Like-named read-outs stand apart in the source and are kept apart here. The match of structure and compound is tentative.
What was measured:
A549 = assay: Cancer cell viability, A549 (CellTiter-Glo); details: read-out: Cellular IC50 (μM) A549, A549 cells, 3 days
Nrf2 = Nrf2 (Homo sapiens, UniProt Q16236); assay: Nrf2 degradation in A549 HiBiT-Nrf2 cells, Nano-Glo HiBiT lytic detection (HiBiT readout)
LK-2 = assay: Cancer cell viability, LK-2 (CellTiter-Glo); details: read-out: Cellular IC50 (μM) LK-2, LK-2 cells, 3 days

By UniProt entry, the sequences of proteins in these tests, tags left out.
UniProt Q16236, whole entry: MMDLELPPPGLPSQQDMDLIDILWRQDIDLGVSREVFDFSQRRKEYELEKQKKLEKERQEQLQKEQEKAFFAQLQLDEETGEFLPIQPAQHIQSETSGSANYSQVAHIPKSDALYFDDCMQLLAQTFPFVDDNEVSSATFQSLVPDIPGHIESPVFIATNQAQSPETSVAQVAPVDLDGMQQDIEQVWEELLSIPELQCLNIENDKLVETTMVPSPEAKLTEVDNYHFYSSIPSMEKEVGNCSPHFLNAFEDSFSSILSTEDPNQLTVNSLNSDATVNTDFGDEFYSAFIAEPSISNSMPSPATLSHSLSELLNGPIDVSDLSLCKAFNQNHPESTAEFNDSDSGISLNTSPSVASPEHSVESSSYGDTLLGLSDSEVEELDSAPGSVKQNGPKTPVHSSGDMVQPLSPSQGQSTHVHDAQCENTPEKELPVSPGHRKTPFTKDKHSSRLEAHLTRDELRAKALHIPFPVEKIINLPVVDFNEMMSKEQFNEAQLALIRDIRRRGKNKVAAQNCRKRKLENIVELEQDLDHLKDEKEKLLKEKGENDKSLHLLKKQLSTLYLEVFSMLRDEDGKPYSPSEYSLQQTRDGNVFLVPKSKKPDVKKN

- IC50 (A549): > 30 µM
- DC50 (Nrf2; read-out: DC50 (nM) at 6 h, 6 h): > 3000 nM
- DC50 (Nrf2; read-out: DC50 (nM) at 20 h, 20 h): > 3000 nM
- IC50 (LK-2): > 30 µM
SMILES: Cc1ccccc1C(=O)N1CCc2cc(-c3nc(NC(=O)Cc4cccc(OCCN5CCN(c6ccc7c(c6)C(=O)N(C6CCC(=O)NC6=O)C7=O)CC5)c4)sc3C)ccc21 (stereo not shown)

— patent publication US20260055097A9, “NRF2 PROTEIN DEGRADERS” (Ganymede Oncology, Inc., priority 2022, published 2026)
